Experimental data published in paper PMC9057599.

Amino acid sequences for entries named in this document (tags omitted).
UniProt Q5VSL9: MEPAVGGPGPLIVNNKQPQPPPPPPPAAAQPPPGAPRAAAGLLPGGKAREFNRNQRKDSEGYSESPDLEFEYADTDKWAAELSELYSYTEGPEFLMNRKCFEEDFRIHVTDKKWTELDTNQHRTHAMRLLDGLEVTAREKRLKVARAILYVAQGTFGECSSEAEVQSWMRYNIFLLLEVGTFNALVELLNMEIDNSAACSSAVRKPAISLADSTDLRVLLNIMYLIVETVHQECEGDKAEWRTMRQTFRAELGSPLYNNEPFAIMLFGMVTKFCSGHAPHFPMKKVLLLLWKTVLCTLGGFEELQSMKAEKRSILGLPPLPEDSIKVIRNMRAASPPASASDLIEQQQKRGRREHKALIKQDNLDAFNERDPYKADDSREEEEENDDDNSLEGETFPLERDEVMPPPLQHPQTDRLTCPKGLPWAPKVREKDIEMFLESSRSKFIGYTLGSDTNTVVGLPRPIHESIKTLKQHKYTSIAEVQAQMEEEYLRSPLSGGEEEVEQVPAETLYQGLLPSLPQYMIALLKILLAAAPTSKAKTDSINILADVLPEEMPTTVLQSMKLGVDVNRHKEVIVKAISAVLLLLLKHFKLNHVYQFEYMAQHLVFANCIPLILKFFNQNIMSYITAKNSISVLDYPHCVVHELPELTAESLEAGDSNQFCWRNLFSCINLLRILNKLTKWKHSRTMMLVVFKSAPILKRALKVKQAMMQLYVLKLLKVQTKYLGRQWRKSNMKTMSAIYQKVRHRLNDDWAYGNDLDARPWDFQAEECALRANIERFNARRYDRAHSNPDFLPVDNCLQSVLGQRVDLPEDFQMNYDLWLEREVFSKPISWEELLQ

Tests used:
MST2 BioID bait = target: T1, MST2 BioID bait (UniProt Q13188); assay: proximity labelling; BioID with mass spectrometry; 293A cells transiently transfected for 24 hours, DMSO or etoposide (1 h), harvested at an early (2 h) or late (18 h) stage
T1 sequence: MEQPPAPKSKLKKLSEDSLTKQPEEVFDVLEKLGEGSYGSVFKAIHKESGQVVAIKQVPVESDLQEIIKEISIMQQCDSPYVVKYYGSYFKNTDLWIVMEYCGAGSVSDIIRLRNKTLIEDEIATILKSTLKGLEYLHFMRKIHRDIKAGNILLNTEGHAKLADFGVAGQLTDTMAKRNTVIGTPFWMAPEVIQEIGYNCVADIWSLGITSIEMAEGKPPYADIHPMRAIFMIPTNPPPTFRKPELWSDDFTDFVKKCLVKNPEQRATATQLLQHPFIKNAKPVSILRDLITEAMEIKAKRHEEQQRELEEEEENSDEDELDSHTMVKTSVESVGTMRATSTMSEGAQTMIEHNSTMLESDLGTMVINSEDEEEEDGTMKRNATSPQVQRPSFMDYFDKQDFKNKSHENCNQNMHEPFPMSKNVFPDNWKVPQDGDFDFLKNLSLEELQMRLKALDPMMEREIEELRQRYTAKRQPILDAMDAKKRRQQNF

SIKE1 BioID bait, Q9BRV8 = target: T2, SIKE1 BioID bait, Q9BRV8; assay: as above; details: remark: other sources report otherwise
T2 chain: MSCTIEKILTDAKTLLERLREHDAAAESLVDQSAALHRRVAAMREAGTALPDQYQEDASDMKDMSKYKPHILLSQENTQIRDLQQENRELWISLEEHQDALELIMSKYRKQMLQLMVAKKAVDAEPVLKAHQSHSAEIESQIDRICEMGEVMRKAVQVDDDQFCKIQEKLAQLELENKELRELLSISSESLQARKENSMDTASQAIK

striatin-interacting protein 1 (STRIP1) (from UniProt Q5VSL9 1-837)
binding (MST2 BioID bait): binds

B1: sarcolemma membrane–associated protein (SLMAP) (protein, UniProt Q14BN4 1-828)
chain: MPSALAIFTCRPNSHPFQERHVYLDEPIKIGRSVARCRPAQNNATFDCKVLSRNHALVWFDHKTGKFYLQDTKSSNGTFINSQRLSRGSEESPPCEILSGDIIQFGVDVTENTRKVTHGCIVSTIKLFLPDGMEARLRSDVIHAPLPSPVDKVAANTPSMYSQELFQLSQYLQEALHREQMLEQKLATLQRLLAITQEASDTSWQALIDEDRLLSRLEVMGNQLQACSKNQTEDSLRKELIALQEDKHNYETTAKESLRRVLQEKIEVVRKLSEVERSLSNTEDECTHLKEMNERTQEELRELANKYNGAVNEIKDLSDKLKVAEGKQEEIQQKGQAEKKELQHKIDEMEEKEQELQAKIEALQADNDFTNERLTALQVRLEHLQEKTLKECSSLEHLLSKSGGDCTFIHQFIECQKKLIVEGHLTKAVEETKLSKENQTRAKESDFSDTLSPSKEKSSDDTTDAQMDEQDLNEPLAKVSLLKDDLQGAQSEIEAKQEIQHLRKELIEAQELARTSKQKCFELQALLEEERKAYRNQVEESTKQIQVLQAQLQRLHIDTENLREEKDSEITSTRDELLSARDEILLLHQAAAKVASERDTDIASLQEELKKVRAELERWRKAASEYEKEITSLQNSFQLRCQQCEDQQREEATRLQGELEKLRKEWNALETECHSLKRENVLLSSELQRQEKELHNSQKQSLELTSDLSILQMSRKELENQVGSLKEQHLRDSADLKTLLSKAENQAKDVQKEYEKTQTVLSELKLKFEMTEQEKQSITDELKQCKNNLKLLREKGNNKPWPWMPMLAALVAVTAIVLYVPGLARASP
binding (MST2 BioID bait): binds

B2: STRN3 (protein, UniProt Q13033 1-797)
chain: MDELAGGGGGGPGMAAPPRQQQGPGGNLGLSPGGNGAAGGGGPPASEGAGPAAGPELSRPQQYTIPGILHYIQHEWARFEMERAHWEVERAELQARIAFLQGERKGQENLKKDLVRRIKMLEYALKQERAKYHKLKYGTELNQGDLKMPTFESEETKDTEAPTAPQNSQLTWKQGRQLLRQYLQEVGYTDTILDVRSQRVRSLLGLSNSEPNGSVETKNLEQILNGGESPKQKGQEIKRSSGDVLETFNFLENADDSDEDEENDMIEGIPEGKDKHRMNKHKIGNEGLAADLTDDPDTEEALKEFDFLVTAEDGEGAGEARSSGDGTEWDKDDLSPTAEVWDVDQGLISKLKEQYKKERKGKKGVKRANRTKLYDMIADLGDDELPHIPSGIINQSRSASTRMTDHEGARAEEAEPITFPSGGGKSFIMGSDDVLLSVLGLGDLADLTVTNDADYSYDLPANKDAFRKTWNPKYTLRSHFDGVRALAFHPVEPVLVTASEDHTLKLWNLQKTVPAKKSASLDVEPIYTFRAHIGPVLSLAISSNGEQCFSGGIDATIQWWNMPSPSVDPYDTYEPNVLAGTLVGHTDAVWGLAYSGIKNQLLSCSADGTVRLWNPQEKLPCICTYNGDKKHGIPTSVDFIGCDPAHMVTSFNTGSAVIYDLETSQSLVILSSQVDSGLQSNNHINRVVSHPTLPVTITAHEDRHIKFFDNKTGKMIHSMVAHLDAVTSLAVDPNGIYLMSGSHDCSIRLWNLDSKTCVQEITAHRKKLDESIYDVAFHSSKAYIASAGADALAKVFV
binding (MST2 BioID bait): binds

B3: STRN4 (protein, UniProt Q9NRL3 1-753)
chain: MMEERAAAAVAAAASSCRPLGSGAGPGPTGAAPVSAPAPGPGPAGKGGGGGGSPGPTAGPEPLSLPGILHFIQHEWARFEAEKARWEAERAELQAQVAFLQGERKGQENLKTDLVRRIKMLEYALKQERAKYHKLKFGTDLNQGEKKADVSEQVSNGPVESVTLENSPLVWKEGRQLLRQYLEEVGYTDTILDMRSKRVRSLLGRSLELNGAVEPSEGAPRAPPGPAGLSGGESLLVKQIEEQIKRNAAGKDGKERLGGSVLGQIPFLQNCEDEDSDEDDELDSVQHKKQRVKLPSKALVPEMEDEDEEDDSEDAINEFDFLGSGEDGEGAPDPRRCTVDGSPHELESRRVKLQGILADLRDVDGLPPKVTGPPPGTPQPRPHEDVFIMDTIGGGEVSLGDLADLTVTNDNDLSCDLSDSKDAFKKTWNPKFTLRSHYDGIRSLAFHHSQSALLTASEDGTLKLWNLQKAVTAKKNAALDVEPIHAFRAHRGPVLAVAMGSNSEYCYSGGADACIHSWKIPDLSMDPYDGYDPSVLSHVLEGHGDAVWGLAFSPTSQRLASCSADGTVRIWDPSSSSPACLCTFPTASEHGVPTSVAFTSTEPAHIVASFRSGDTVLYDMEVGSALLTLESRGSSGPTQINQVVSHPNQPLTITAHDDRGIRFLDNRTGKPVHSMVAHLDAVTCLAVDPNGAFLMSGSHDCSLRLWSLDNKTCVQEITAHRKKHEEAIHAVACHPSKALIASAGADALAKVFV
binding (MST2 BioID bait): binds

B4: mammalian STE20-like protein kinase 2 (MST2), Q13188 1-491 (protein)
chain: MEQPPAPKSKLKKLSEDSLTKQPEEVFDVLEKLGEGSYGSVFKAIHKESGQVVAIKQVPVESDLQEIIKEISIMQQCDSPYVVKYYGSYFKNTDLWIVMEYCGAGSVSDIIRLRNKTLIEDEIATILKSTLKGLEYLHFMRKIHRDIKAGNILLNTEGHAKLADFGVAGQLTDTMAKRNTVIGTPFWMAPEVIQEIGYNCVADIWSLGITSIEMAEGKPPYADIHPMRAIFMIPTNPPPTFRKPELWSDDFTDFVKKCLVKNPEQRATATQLLQHPFIKNAKPVSILRDLITEAMEIKAKRHEEQQRELEEEEENSDEDELDSHTMVKTSVESVGTMRATSTMSEGAQTMIEHNSTMLESDLGTMVINSEDEEEEDGTMKRNATSPQVQRPSFMDYFDKQDFKNKSHENCNQNMHEPFPMSKNVFPDNWKVPQDGDFDFLKNLSLEELQMRLKALDPMMEREIEELRQRYTAKRQPILDAMDAKKRRQQNF
binding (SIKE1 BioID bait, Q9BRV8): binds

Results are given in words; binding and its absence hold for the method and conditions named. In cells and extracts the contact can be indirect. A yes stands for co-enrichment or nearness to the bait. Other partners may have been found.
